The list shows a part of the results.
Tests used:
Assay in all cases: log2 fold change, soluble protein after heating vs DMSO (PISA); higher = thermal stabilisation; K562 cells, 10 uM, 30 min; active = over 0.2 and 3.5 SD of the protein, either way, in both replicates (recomputed)
[1] = compound: CCn1c(C(=O)N(C2CC2)C2CC2)cc2c3c(ncn3C)c(Nc3cc(C)n(C)n3)nc21
Outline: (§1)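 Soluble protein was defined as the supernatant after 21,000xg for 90 min. It came from K562 cells at 2×10^6 cells/mL given 10 μM compound for 30 min, heated in aliquots for 3 min across 48°C-58°C, pooled, and extracted in PBS with 0.5% NP-40 at 4°C, and was quantified by TMTpro 16plex LC-MS/MS with equalised channel sums. Thermal stability against control samples, from duplicates, is reported as log2 fold change.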

[2] = compound: CNC(=O)C1=CC=CC=C1NC2=NC(=NC=C2Cl)NC3=C(C=C(C=C3)N4CCOCC4)OC
Outline: as §1

[3] = compound: CCn1cc(-c2ccnc3[nH]c(-c4cccc(CN(C)C)c4)cc23)c(-c2ccc(NC(=O)N(C)C)cc2)n1
Outline: as §1

rosiglitazone = compound: CN(CCOC1=CC=C(C=C1)C[C@H]2C(=O)NC(=O)S2)C3=CC=CC=N3 (racemic) [rosiglitazone]
Outline: as §1

[4] = compound: CN1CCC(CNc2ccc3ncc(-c4cccc(OC(F)(F)F)c4)n3n2)CC1
Outline: as §1

sotrastaurin = compound: CN1CCN(c2nc(C3=C(c4c[nH]c5ccccc45)C(=O)NC3=O)c3ccccc3n2)CC1 [sotrastaurin]
Outline: as §1

volasertib = compound: CC[C@@H]1C(=O)N(C)c2cnc(Nc3ccc(C(=O)N[C@H]4CC[C@H](N5CCN(CC6CC6)CC5)CC4)cc3OC)nc2N1C(C)C [volasertib]
Outline: as §1

[5] = compound: CN1C2=C(C3=C1C(=O)N(N=C3)CC4=CC(=CC=C4)N)SC(=C2)S(=O)C
Outline: as §1

saracatinib = compound: CN1CCN(CCOc2cc(OC3CCOCC3)c3c(Nc4c(Cl)ccc5c4OCO5)ncnc3c2)CC1 [saracatinib]
Outline: as §1

alvocidib = compound: CN1CC[C@H](c2c(O)cc(O)c3c(=O)cc(-c4ccccc4Cl)oc23)[C@H](O)C1 [alvocidib]
Outline: as §1

Tubastatin A = compound: CN1CCc2c(c3ccccc3n2Cc2ccc(C(=O)NO)cc2)C1 [Tubastatin A]
Outline: as §1

[6] = compound: CNc1nc(-c2ccc3c(N)n[nH]c3c2)cc(N2C[C@@H](C(=O)NC3CCCCC3)CC[C@H]2C)n1
Outline: as §1

epoxomicin = compound: CC[C@H](C)[C@@H](C(=O)N[C@@H]([C@@H](C)O)C(=O)N[C@@H](CC(C)C)C(=O)[C@]1(CO1)C)NC(=O)[C@H]([C@@H](C)CC)N(C)C(=O)C [epoxomicin]
Outline: as §1

[7] = compound: CC[C@H](C)N1C=C(C2=C(C=C(C=C21)C3=CN=C(C=C3)N4CCNCC4)C(=O)NCC5=C(C=C(NC5=O)C)C)C
Outline: as §1

[8] = compound: CN(C)CC(=O)Nc1ccc2[nH]c(=O)c3ccccc3c2c1
Outline: as §1

defactinib = compound: CNC(=O)c1ccc(Nc2ncc(C(F)(F)F)c(NCc3nccnc3N(C)S(C)(=O)=O)n2)cc1 [defactinib]
Outline: as §1

[9] = compound: COC(=O)[C@H](CCSC)NC(=O)C1=C(C=C(C=C1)NC[C@H](CS)N)C2=CC=CC=C2
Outline: as §1

[10] = compound: CC[C@@H]1C(=O)N(C)c2cnc(Nc3ccc(C(=O)NC4CCN(C)CC4)cc3OC)nc2N1C1CCCC1
Outline: as §1

rucaparib = compound: CNCc1ccc(-c2[nH]c3cc(F)cc4c3c2CCNC4=O)cc1 [rucaparib]
Outline: as §1

encorafenib = compound: COC(=O)N[C@@H](C)CNc1nccc(-c2cn(C(C)C)nc2-c2cc(Cl)cc(NS(C)(=O)=O)c2F)n1 [encorafenib]
Outline: as §1

Measured: log2 fold change

PPP2CB (UniProt E5RHC1)
inactive: [1] 0.068 | [2] -0.176

PRNP (UniProt P04156)
inactive: [1] 0.006 | [3] -0.011 | rosiglitazone -0.144 | [4] -0.169 | sotrastaurin 0.022 | [2] 0.073

PPP2R2A, A0A590UJJ1
inactive: [3] -0.04 | [4] 0.155

PRPF39 (UniProt Q86UA1)
inactive: volasertib -0.563 | [5] -0.042 | saracatinib -0.113 | alvocidib -0.382 | Tubastatin A 0.237 | [6] -0.038

PRPF6 (UniProt O94906)
inactive: epoxomicin 0.104 | [1] -0.061 | [3] 0.103 | rosiglitazone -0.094 | [5] -0.118 | [4] 0.146 | saracatinib 0.049 | sotrastaurin 0.009 | Tubastatin A 0.221 | [2] 0.137 | [6] -0.068

PRR4 (UniProt Q16378)
inactive: [7] 0.484 | rosiglitazone 0.037

PRC1 (UniProt O43663)
inactive: sotrastaurin 0.017 | alvocidib -0.06 | Tubastatin A 0.104

PRH1 (UniProt P02810)
inactive: [7] 0.213

PPP2R3B (UniProt Q9Y5P8)
inactive: [7] 0.009 | epoxomicin -0.064 | [8] 0.121 | Tubastatin A 0.029 | defactinib 0.173 | [9] -0.195

PPP1R12B isoform 6 (UniProt O60237)
inactive: [7] 0.088 | [2] 0

PRR12 (UniProt Q9ULL5)
inactive: [1] -0.039 | sotrastaurin -0.051 | [2] -0.777

PRELID1 (UniProt Q9Y255)
inactive: volasertib 0.116 | [7] -0.011 | epoxomicin 0.164 | [1] 0.049 | [3] -0.049 | [8] -0.025 | rosiglitazone -0.09 | [4] 0.099 | sotrastaurin 0.051 | Tubastatin A 0.234 | [2] -0.049 | defactinib 0.07 | [9] -0.089

PRRG1 (UniProt O14668)
inactive: volasertib 0.01 | [3] -0.024 | [4] -0.022

PRELID3B (UniProt Q9Y3B1)
inactive: volasertib -0.057 | epoxomicin 0.161 | [1] 0.318 | [3] -0.246 | [4] -0.393 | Tubastatin A 0.074 | [2] 0.325

PRKD2 isoform 3 (UniProt Q9BZL6)
active: volasertib -0.674
inactive: [7] 0.149 | epoxomicin 0.049 | [3] -0.089 | [8] 0.042 | [5] 0.056 | [4] -0.316 | saracatinib -0.031 | sotrastaurin -0.273 | Tubastatin A 0 | [2] -0.242 | defactinib -0.004 | [6] -0.075 | [9] -0.024

PRF1 (UniProt P14222)
inactive: volasertib 0.041 | epoxomicin 0.113 | [1] -0.073 | rosiglitazone 0.108 | sotrastaurin 0.096 | [2] -0.162

PPP2R5C isoform 2 (UniProt Q13362)
inactive: [10] -0.209 | [2] -0.017 | rucaparib -0.063 | encorafenib 0.003

PPP1CC (UniProt F8W1A0)
inactive: [3] -0.054 | rosiglitazone -0.057 | [4] -0.238

PRR14L (UniProt Q5THK1)
inactive: volasertib 0.218 | [7] -0.088 | [3] 0.006 | [8] -0.134 | [4] 0.073 | Tubastatin A 0.053 | defactinib 0.286 | [9] 0.125

PRR3 (UniProt P79522)
inactive: epoxomicin -0.092 | [3] 0.253 | [4] 0.145 | sotrastaurin -0.087 | Tubastatin A 0.153

PPP1R3D (UniProt O95685)
inactive: [7] -0.038 | [1] 0.037 | [3] 0.312 | rosiglitazone 0.044 | [4] -0.161 | alvocidib 0.114 | Tubastatin A -0.143 | [2] -0.064

Looked up one by one from the list above (two):
PPP2R5C isoform 2 (UniProt Q13362)
inactive: [10] -0.209 | [2] -0.017 | rucaparib -0.063 | encorafenib 0.003

PPP1R3D (UniProt O95685)
inactive: [7] -0.038 | [1] 0.037 | [3] 0.312 | rosiglitazone 0.044 | [4] -0.161 | alvocidib 0.114 | Tubastatin A -0.143 | [2] -0.064

Following part.

PPP1R15A (UniProt O75807)
inactive: volasertib 0.134 | epoxomicin -0.027 | [1] 0.02 | sotrastaurin 0.093 | [2] 0.044

PRIMPOL (UniProt Q96LW4)
inactive: volasertib -0.217 | [5] 0.032 | saracatinib -0.218 | sotrastaurin 0.059 | alvocidib -0.106 | Tubastatin A -0.096 | [6] -0.216

PRKX (UniProt P51817)
inactive: [2] -0.139

PRMT2 (UniProt P55345)
inactive: sotrastaurin -0.034

PPP1R21 (UniProt Q6ZMI0)
inactive: volasertib -0.295 | [7] -0.181 | epoxomicin 0.063 | [1] -0.028 | [3] -0.037 | [8] 0.04 | rosiglitazone -0.082 | [5] 0.131 | [4] -0.17 | saracatinib -0.155 | sotrastaurin -0.059 | alvocidib -0.1 | [2] -0.044 | defactinib -0.185 | [6] -0.073 | [9] 0.151

PPTC7 (UniProt Q8NI37)
inactive: epoxomicin -0.078 | [3] 0.002 | [8] 0.002 | [4] 0.205 | defactinib -0.059 | [9] 0.018

PROSER1 (UniProt Q86XN7)
inactive: volasertib -0.072 | sotrastaurin -0.158 | Tubastatin A 0.231

PROSER3 (UniProt Q2NL68)
inactive: volasertib -0.108 | [7] -0.012 | [1] 0.011 | rosiglitazone -0.064 | [5] 0.222 | saracatinib 0.217 | alvocidib -0.318 | Tubastatin A 0.002 | [2] 0.024 | [6] -0.282

PRKD2 (UniProt M0R346)
inactive: epoxomicin -0.072 | [3] -0.025 | [4] -0.14 | sotrastaurin -0.247

Reference: the supplement of paper PMC10849652
